Among all 330,000 compounds or so, about 670 (0.2%) were called active. The shares of active, inactive and inconclusive entries below differ from those in the screen.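 How the source made its calls: active means activity change below a set negative limit, meaning inhibition stronger than a set level (cut at about -70% in these data); inconclusive means activity change between two set negative limits; inactive means the rest.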
Target: Thyrotropin receptor (Homo sapiens) (UniProt P16473)
Test: Antagonists of the Thyroid Stimulating Hormone Receptor: HTS campaign
Settings: TSHR-expressing cells, TSH-stimulated cAMP HTRF, 2 h; at 11.5 µM; hits give low values
In short: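 Antagonism was scored as loss of TSH-driven cAMP in TSHR cells, stimulated with 4nM TSH (EC80) for 2 hours at 37 deg C and detected by homogeneous HTRF competition immunoassay.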
On the % scale 0 is the no-effect control and ±100 the full control effect.

Amino acid sequences for entries named in this document (tags omitted).
UniProt P16473, whole entry, looked up: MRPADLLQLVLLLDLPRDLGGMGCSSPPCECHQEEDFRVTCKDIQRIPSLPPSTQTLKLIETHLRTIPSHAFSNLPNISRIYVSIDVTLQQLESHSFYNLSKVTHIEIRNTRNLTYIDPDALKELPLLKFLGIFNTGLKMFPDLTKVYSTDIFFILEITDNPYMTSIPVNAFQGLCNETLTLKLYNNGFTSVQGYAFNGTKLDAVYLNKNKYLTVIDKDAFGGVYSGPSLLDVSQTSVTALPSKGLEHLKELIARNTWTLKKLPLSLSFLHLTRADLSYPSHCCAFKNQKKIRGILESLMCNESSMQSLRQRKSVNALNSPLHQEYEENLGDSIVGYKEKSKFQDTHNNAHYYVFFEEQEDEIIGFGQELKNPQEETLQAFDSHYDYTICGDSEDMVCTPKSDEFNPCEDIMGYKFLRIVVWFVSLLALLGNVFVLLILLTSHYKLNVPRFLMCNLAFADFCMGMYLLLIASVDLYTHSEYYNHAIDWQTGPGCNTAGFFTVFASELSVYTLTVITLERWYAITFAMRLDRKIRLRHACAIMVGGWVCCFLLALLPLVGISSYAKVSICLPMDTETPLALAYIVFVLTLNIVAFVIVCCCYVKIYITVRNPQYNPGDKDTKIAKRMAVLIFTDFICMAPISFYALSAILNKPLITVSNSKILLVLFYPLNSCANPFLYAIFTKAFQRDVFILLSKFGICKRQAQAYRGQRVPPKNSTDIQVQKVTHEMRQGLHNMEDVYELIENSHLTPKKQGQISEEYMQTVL

SMILES	activity change, negative = inhibition
Cc1cc(C)c(NC(=O)c2ccc(CN3CCc4ccccc4C3)cc2)c(C)c1	inactive: -14.1%
COc1ccccc1NC(=O)C(C)OC(=O)c1cc2ccccc2[nH]1 (configuration not stated)	inconclusive: -55.9%
O=[N+]([O-])c1ccc(NC(=S)NCCc2ccc(F)cc2)cc1	inconclusive: -59.5%
O=c1oc(C2(O)CCCCC2)cc2ccc(/C=C/c3ccc(F)cc3)cc12	active: -79%
CCCCCCCC[n+]1cccc2c3ccccc3ccc21	inconclusive: -51.2%
Clc1ccccc1CN(Cc1ccccc1)c1ncnc2nc[nH]c12	inconclusive: -70%
CC(C)CNC(=O)C1CCN(c2ccc(S(=O)(=O)N3CCOCC3)cc2)CC1	active: -77.4%
Cc1cccc(C)c1NC(=O)N1CCC(C(=O)c2ccc(F)cc2)CC1	active: -78.6%
CC(=O)[C@@H]1[C@@H]2C(=O)N(Cc3ccccc3)C(=O)[C@@H]2C2c3ccccc3C=CN21 (some centres not stated)	inactive: 0.604%
CN(C)S(=O)(=O)c1cccc(NC(=O)CCCSc2ccccc2)c1	inactive: -23.6%
CC1=CCC2C(=O)N(c3ccc(C(=O)Nc4ccccc4Cl)cc3)C(=O)C2C1 (configuration not stated)	active: -81.9%
O=C(NCc1ccc(F)cc1)c1ccncc1	active: -121%
Cc1ccnc(Nc2nc(-c3ccc(F)cc3)cs2)c1	inconclusive: -69.2%
NC(=O)c1cc2ccccc2o/c1=N/NC(=O)c1cccc(Cl)c1	active: -78.5%
CCCNC(=O)c1nnsc1S(=O)(=O)c1ccc(Cl)cc1	inconclusive: -51.5%
CC1CCCN(S(=O)(=O)c2csc(C(N)=O)c2)C1 (configuration not stated)	active: -140%
COc1ccc(-n2c(C)cc(C(=O)COC(=O)c3ccc(O)cc3O)c2C)cc1	active: -73.5%
CC(C)C(c1nnnn1Cc1ccc(F)cc1)N1CCN(c2ccc(O)cc2)CC1 (configuration not stated)	inconclusive: -52.2%
COc1ccc(N(CC(=O)Nc2cc(Cl)ccc2OC)S(=O)(=O)c2c(C)noc2C)cc1	inconclusive: -58.7%
Clc1cccc(Cl)c1C1Nc2cccc3cccc(c23)N1	active: -70.5%
O=[N+]([O-])c1c(NCCCO)cc(Sc2nc3ccccc3s2)c2nonc12	active: -94.2%
CN=c1scc(-c2cccs2)n1/N=C/c1ccccc1O	inconclusive: -50.5%
O=c1cc(CO)oc(C(Nc2ccccn2)c2cccc(F)c2)c1O (configuration not stated)	inactive: -0.82%
COCCNC(=O)CC(NS(=O)(=O)c1ccc(C)cc1)c1ccco1 (configuration not stated)	inconclusive: -50.7%
N#C/C(=C(/O)COC(=O)c1ccccc1O)c1nc2ccccc2s1	inconclusive: -52.1%
O=C(N/N=C/c1cc(Br)cc(Br)c1O)c1cccc(S(=O)(=O)N2CCOCC2)c1	inconclusive: -63.1%

Part of the list above, with bars between the fields.
SMILES | activity change, negative = inhibition
CC(C)CNC(=O)C1CCN(c2ccc(S(=O)(=O)N3CCOCC3)cc2)CC1 | active: -77.4%
Cc1cccc(C)c1NC(=O)N1CCC(C(=O)c2ccc(F)cc2)CC1 | active: -78.6%
CC(=O)[C@@H]1[C@@H]2C(=O)N(Cc3ccccc3)C(=O)[C@@H]2C2c3ccccc3C=CN21 (some centres not stated) | inactive: 0.604%
CN(C)S(=O)(=O)c1cccc(NC(=O)CCCSc2ccccc2)c1 | inactive: -23.6%
CC1=CCC2C(=O)N(c3ccc(C(=O)Nc4ccccc4Cl)cc3)C(=O)C2C1 (configuration not stated) | active: -81.9%
CC1CCCN(S(=O)(=O)c2csc(C(N)=O)c2)C1 (configuration not stated) | active: -140%
CC(C)C(c1nnnn1Cc1ccc(F)cc1)N1CCN(c2ccc(O)cc2)CC1 (configuration not stated) | inconclusive: -52.2%
Clc1cccc(Cl)c1C1Nc2cccc3cccc(c23)N1 | active: -70.5%
O=[N+]([O-])c1c(NCCCO)cc(Sc2nc3ccccc3s2)c2nonc12 | active: -94.2%
CN=c1scc(-c2cccs2)n1/N=C/c1ccccc1O | inconclusive: -50.5%
COCCNC(=O)CC(NS(=O)(=O)c1ccc(C)cc1)c1ccco1 (configuration not stated) | inconclusive: -50.7%
O=C(N/N=C/c1cc(Br)cc(Br)c1O)c1cccc(S(=O)(=O)N2CCOCC2)c1 | inconclusive: -63.1%

Continued.

SMILES	activity change, negative = inhibition
O=C(NN1C(=O)c2ccccc2NC1c1ccc([N+](=O)[O-])o1)c1ccc([N+](=O)[O-])cc1 (configuration not stated)	inactive: 3.09%
Cc1cc(Cl)c(S(=O)(=O)N2CCN(c3ccc(F)cc3)CC2)cc1OCC(=O)NC1CCCCC1	inconclusive: -56.6%
C/C(=C\C(=O)c1ccc(Br)cc1)NNC(=O)c1ccc(O)cc1	inactive: 11.6%
N#CC(C#N)=NNc1ccc(S(=O)(=O)N2CCCCC2)cc1	inconclusive: -69.5%
COc1ccc(/C=N/NC(=O)c2cccnc2)cc1CN1CCCc2ccccc21	inconclusive: -63.2%
Cc1nnc(SC(=O)N2c3ccccc3Sc3ccccc32)s1	inconclusive: -59.8%
CN(C)c1ccc(NC(=O)C2C3C=CC(C3)C2C(=O)O)cc1 (configuration not stated)	active: -89.3%
CCn1c(SCC(=O)N2CCN(C)CC2)nc2c1c(=O)n(C)c(=O)n2C	inactive: 0.499%
CC1CCN(S(=O)(=O)c2ccc([N+](=O)[O-])cc2)CC1	inactive: 4.64%
COc1ccc(-c2nnc(NC(=O)c3ccc(S(=O)(=O)N4CCCc5ccccc54)cc3)o2)cc1	inconclusive: -52.9%
COc1ccc(CNC(=O)CCS(=O)(=O)c2ccc3c(c2)CCN3C(C)=O)cc1	inconclusive: -59.6%
CCCCCC(=O)NNC1CC(=O)N(c2ccccc2)C1=O (configuration not stated)	inactive: -8.69%
Cc1cc2nc(-c3ccc(NC(=O)c4cccnc4)cc3)oc2cc1C	inconclusive: -53.9%
CCN(CC)S(=O)(=O)c1cc(NC(=O)C2CCN(c3ncnc4sc(C)c(C)c34)CC2)ccc1Cl	inconclusive: -58%
O=C(CCS(=O)(=O)c1ccc(F)cc1)Nc1nc(-c2ccccn2)cs1	active: -110%
O=C(Nc1ccc(OCC(F)(F)C(F)F)c(C(F)(F)F)c1)c1ccccc1O	inconclusive: -68.4%
Cc1cc(C(=O)N2CCCC(N3CCN(c4cccc(Cl)c4)CC3)C2)nn1C (configuration not stated)	inconclusive: -57.1%
COc1ccc(N=C2NC(=O)S/C2=C\c2ccc(N(C)C)cc2)cc1	inactive: -6.81%
COc1ccc(/C=C\C(=O)O[C@@H]2C(O)C(O[C@@H]3OC(C)[C@H](O[C@@H]4OCC(O[C@H]5O[C@H](CO)[C@@H](O)C(O)C5O)C(O)C4O)C(O)C3O)[C@H](OC(=O)[C@]34CCC(C)(C)C[C@@H]3C3=CCC5[C@@]6(C)CC(O)C(O[C@@H]7OC(CO)C(O)[C@H](O)[C@H]7O)[C@@](C)(C(=O)O)C6CC[C@@]5(C)[C@]3(CO)CC4)O[C@H]2C)cc1 (some centres not stated)	inconclusive: -59.9%
O=C(Nc1ccc(OC(F)(F)F)cc1)Nc1cccc([N+](=O)[O-])c1	inconclusive: -55.4%
COc1ccc(NC(=O)c2nc(S(=O)(=O)Cc3cccc(C)c3)ncc2Cl)c(OC)c1	active: -80.4%
O=C(c1ccc(Cl)c(S(=O)(=O)N2CCCCC2)c1)N1CCCC1	inconclusive: -55.4%
COc1ccc(/C=C2\SC(=S)NC2=O)cc1OS(=O)(=O)c1ccc(NC(C)=O)cc1	inconclusive: -51.8%
CC[n+]1cc(C)ccc1/C=C/c1ccc(N(C)C)cc1	inconclusive: -54.8%
CSCC(=O)N1CCC(CCC(=O)NC2CC2)CC1	inactive: 8.34%
CCCn1nc(C(=O)Nc2cc(S(=O)(=O)Nc3ccc(OC)cc3)ccc2O)c2ccccc2c1=O	inconclusive: -51.8%

From PubChem BioAssay AID504810 (National Center for Advancing Translational Sciences (NCATS), 2011)
